Assay results from patent publication US20190177415A1.
No constants are given. Whether binding was seen depends on the method and setting.

Protein sequences, listed by entry. Tags and fused reporters are not part of them. Lines headed by an entry give the natural chain unless they say otherwise; changes in a name come on top.
UniProt Q9H7M9: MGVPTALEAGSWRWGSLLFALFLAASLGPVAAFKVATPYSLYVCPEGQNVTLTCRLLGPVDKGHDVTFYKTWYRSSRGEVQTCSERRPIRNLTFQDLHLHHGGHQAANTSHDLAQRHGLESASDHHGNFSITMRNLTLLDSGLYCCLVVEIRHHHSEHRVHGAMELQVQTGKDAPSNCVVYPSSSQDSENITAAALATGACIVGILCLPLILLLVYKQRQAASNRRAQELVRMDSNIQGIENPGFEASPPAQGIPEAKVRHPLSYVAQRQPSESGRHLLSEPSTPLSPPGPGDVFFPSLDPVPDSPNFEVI

T1: chimeric C10orf54: mouse IgV with human STALK (construct CC6) (human/mouse chimera)
T1 sequence: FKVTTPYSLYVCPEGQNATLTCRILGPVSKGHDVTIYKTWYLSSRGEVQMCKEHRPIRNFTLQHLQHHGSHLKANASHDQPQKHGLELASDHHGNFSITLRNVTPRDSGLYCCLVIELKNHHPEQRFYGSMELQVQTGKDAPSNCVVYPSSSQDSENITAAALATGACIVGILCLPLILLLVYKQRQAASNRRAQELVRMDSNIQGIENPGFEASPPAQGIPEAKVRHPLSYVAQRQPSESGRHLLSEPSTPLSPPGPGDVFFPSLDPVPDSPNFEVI

T2: full length mouse C10orf54 (construct CC2) (mouse) (UniProt Q9D659)
T2 sequence: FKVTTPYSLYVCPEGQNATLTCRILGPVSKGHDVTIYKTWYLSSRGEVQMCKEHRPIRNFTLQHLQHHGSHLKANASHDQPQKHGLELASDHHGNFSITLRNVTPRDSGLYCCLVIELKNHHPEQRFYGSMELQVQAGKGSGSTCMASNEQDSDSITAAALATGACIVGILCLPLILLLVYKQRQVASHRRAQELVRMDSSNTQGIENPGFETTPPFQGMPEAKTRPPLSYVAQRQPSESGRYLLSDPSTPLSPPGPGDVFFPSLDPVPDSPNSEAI

T3: chimeric C10orf54: mouse with human loop (construct CC10) (human/mouse chimera)
T3 sequence: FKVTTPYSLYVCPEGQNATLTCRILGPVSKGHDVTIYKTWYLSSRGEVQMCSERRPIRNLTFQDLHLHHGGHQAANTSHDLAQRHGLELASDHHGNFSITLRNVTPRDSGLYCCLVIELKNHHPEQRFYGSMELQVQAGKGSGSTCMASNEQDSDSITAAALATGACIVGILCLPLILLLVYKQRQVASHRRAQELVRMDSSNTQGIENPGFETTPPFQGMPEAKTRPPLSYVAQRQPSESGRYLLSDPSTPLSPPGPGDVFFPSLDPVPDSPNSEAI


Columns and labels:
Experiment in all cases: condition: MFI <20-fold over isotype control at 2 ug/ml; flow cytometry, transfected 293t cells
[1] = target: T1, chimeric C10orf54: mouse IgV with human STALK (construct CC6) (human/mouse chimera)
[2] = target: T2, full length mouse C10orf54 (construct CC2) (mouse)
[3] = target: T3, chimeric C10orf54: mouse with human loop (construct CC10) (human/mouse chimera)
[4] = target: chimeric C10orf54: first half of IgV human and remainder (including loop) mouse (construct CC7) (human/mouse chimera)
[5] = target: chimeric C10orf54: human with mouse loop (construct CC9) (human/mouse chimera) (UniProt Q9H7M9)

Binder | binding [1] | binding [2] | binding [4] | binding [5] | binding [3]
murine monoclonal antibody 53A (antibody, V domains shown) VH: EVQLQQSGPELVKPGASVKMSCKASGYTFTSYFMHWVKQKPGQGLEWIGYIYPYNDGTKYNEKFKGKATLTSDKSSSTAYMELSSLTSEDSAVYYCARFDYDTLRYWGQGTTLTVSS VL: DVVLTQTPLSLPVNIGDQASISCKSTKSLLNSDGFTYLDWYLQKPGQSPQLLIYLVSNRFSGVPDRFSGSGSGTDFTLKISRVEAEDLGVYYCFQSNYFPWTFGGGTKLEIK | no binding | no binding | no binding | no binding | no binding
murine monoclonal antibody 5B (antibody, V domains shown) VH: QVQLQQSGAELVRPGVSVKISCKGSGYTFTDYGMHWVKQSHAKSLEWIGIIDTYYGDATYNQKFKGKATMTVDKSSSTAYMELARLTSEDSAIYYCARRAGNAMDYWGQGTSVTVSS VL: NIVMTQTPKFLLVSAGDRVTITCKASQSVSNDVAWYQQKPGQSPKLLIYYASNRYTGVPDRFTGSGYGTDFTFTISTVQAEDLAVYFCQQDYSSPRTFGGGTKLEIK | no binding | no binding | no binding | no binding | 
murine monoclonal antibody 46A (antibody, V domains shown) VH: QVQLQQAGGELVRPGVSVKISCKGSGYTFTDYGMHWVKQSHAKSLEWIGIINTYYGDATYNQKFKGKATMTVDKSSSTAYMELARLTSEDSAIYYCARRAGTAMDYWGQGTSVTVSS VL: SIVMTQTPKFLLVSAGDRVTITCKASQSVSNDVAWYQQKPGQSPKLLIYYASNRYTGVPDRFTGSGYGTDFTFTISTVQAEDLAVYFCQQDYGSPRTFGGGTKLEIK | no binding |  |  | no binding | 
murine monoclonal antibody 51A (antibody, V domains shown) VH: QVQLQQSGAELMKPGASVKISCKATGYTFSRYWIEWVKQRPGHGLEWIGEILPGSGSTNYNEKFKGKATFTADTSSNTAYMQLSSLTSEDSAVYYCASEEVYDGYPWFGYWGQGTLVTVSA VL: QIVLSQSPAILSASPGEKVTMTCRASSSLSYMHWYQQRPGSSPKPWIYATSNLASGVPARFSGSGSGTSYSLTISRVEAEDAATYYCQQWSSNPYTFGGGTKLEIK |  | no binding | no binding |  | 
murine monoclonal antibody 353A (antibody, V domains shown) VH: EVKLLESGGGLVQPGGSLKLSCAASGFDFSRYWMNWVRQAPGKGLEWIGEINPDSSTINYTPSLKDKFIISRDNAKNTLYLQMSKVRYEDTALYYCARPGEIYYYGSYWFAYWGQGTLVTVSA VL: DIVLTQSPASLAVSLGQRATISCRASESVEYYGTSLMQWFQQKPGQPPKLLIYAASNVESRVPARFSGSGSGTDFSLNIHPVEEDDIAMYFCQQSRKDPWTFGGGTKLEIK | no binding | no binding | no binding |  | no binding
murine monoclonal antibody 215A (antibody, V domains shown) VH: EVQLQQSGPELVKPGASMKISCKASGFSFTGYTMNWVKQSHGKNLEWIGLISPYNGGTSYNQKFKGKATLTVDKSSSTAYMELLSLTSEDSAVYYCARRAYGYAMDYWGQGTSVTVSS VL: QIVLTQSPAIMSASPGEKVTMTCSASSSVSYMFWYQQKPGSSPRLLIYDTSNLASGVPLRFSGSGSGTSYSLTISRMEAEDAATYYCQQWSSYPFTFGSGTKLEIK | no binding | no binding | no binding | no binding | no binding

More lines, main results first:

binding [1] | binding [2] | binding [4] | binding [5] | Binder | binding [3]
no binding | no binding | no binding | no binding | murine monoclonal antibody 76E1 (antibody, V domains shown) VH: EVQLLQSGPELEKPGASVKISCKASGYSFTGYNMNWVKQSNGKSLEWIGNIDPYYDYTSYNLKFKDKATLTVDKSSSTAYMQLKSLTSEDSAVYYCATSTMITPFDYWGQGTTLTVSS VL: DVLMTQTPLSLPVSLGDQASISCRSSQSIVHSNGNTYLEWYLQKPGQSPKLLIYKVSNRFSGVPDRFSGSGSGTDFTLKINRVEAEDLGVYYCFQGSHVPWTFGGGTKLEIK | no binding
no binding | no binding | no binding | no binding | murine monoclonal antibody 321D (antibody, V domains shown) VH: QVQLQQSGAELMKPGAAVKISCKATGYTFSSHWIEWVKQRPGHGLEWIGEILPGSGSTDYNEKFKGKATFTADTSSNTAYMQLSSLTSEDSAVYYCARWLLYYYAMDYWGQGTSVTVSS VL: DVLMTQTPLSLPVSLGDQASISCRSSQSIVHSNGNTYLEWYLQKPGQSPKLLIYKVSNRFSGVPDRFSGSGSGTDFTLKITRVEAEDLGVYYCFQGSHVPFTFGGGTKLEIK | 
no binding | no binding | no binding | no binding | murine monoclonal antibody 33A (antibody, V domains shown) VH: QVQLQQSGAELMKPGASVKISCKATGYTFSSYWIEWVKQRPGHGLEWIGEILPGSGSTSYNEKFKGKATFTADTSSNTAYMQLSGLTSEDSAVYYCARWLLYYYAMVYWGQGTSVTVSS VL: DVLMTQTPLSLPVSLGDQASISCRSSQSIVHSNGNTYLEWYLQKPGQSPKLLIYKVSNRFSGVPDRFSGSGSGTDFTLKISRVEAEDLGVYYCFQGSHVPYTFGGGTKLEIK | 
no binding | no binding | no binding | no binding | murine monoclonal antibody 146C (antibody, V domains shown) VH: QVQLQQSGAELVRPGVSVKISCKGSGYTFTDYGMHWVKQSHAKSLEWIGLIDTYYGDATYNHKFKGKATMTVDKSSRTAYMELARLTSEDSAIYYCARRAGNAMDYWGQGTSVTASS VL: NIAMTQTPKFLLVSAGDRVTITCKASQSVSNDIAWYQQKPGQSPRLLIYYASNRYTGVPDRFTGSGYGTDFTFTISTVQAEDLAVYFCQQDYSSPRTFGGGTKLEIK | 
no binding | no binding | no binding | no binding | murine monoclonal antibody 128A (antibody, V domains shown) VH: QVQLQQSGAELVRPGVSVKISCKGSGYTFTDYGMHWVKQSHAKSLEWIGLIDTYYGDATYNHKFKGKATMTVDKSSRTAYMELARLTSEDSAIYYCARRAGNAMDYWGQGTSVTASS VL: NIAMTQTPKFLLVSAGDRVTITCKASQSVSNDIAWYQQKPGQSPRLLIYYASNRYTGVPDRFTGSGYGTDFTFTISTVQAEDLAVYFCQQDYSSPRTFGGGTKLEIK | 
no binding | no binding | no binding | no binding | murine monoclonal antibody 208A (antibody, V domains shown) VH: QVQLQQSGAELVRPGVSVKISCKGSGYTFTDYGMHWVKQSHAKSLEWIGVIDTYYGDAGYNQKFKGKATMTVDKSSSTAYMELARLTSEDSAIYYCARRAGNAMDYWGQGTSVTVSS VL: SIVMTQTPKFLLVSAGDRVTITCKASQSVSNDVAWYQQKPGQSPKLLIYYASNRYTGVPDRFTGSGYGTDFTFTISTVQAEDLAVYFCQQDYSSPRTFGGGTKLEIK | 
no binding | no binding | no binding |  | murine monoclonal antibody 141A (antibody, V domains shown) VH: QVQLQQSGAELMKPGASVKISCKATGYTFSRYWIEWVKQRPGHGLEWIGEILPGSGSTNYNEKFKGKATFTADTSSNTAYMQLSSLTSEDSAVYYCAGEEVYDGYPWFGYWGQGTLVTVSA VL: QIVLSQSPAILSASPGEKVTMTCRASSSLSYMHWYQQKPGSSPKPWIYATSNLASGVPARFSGSGSGTSYSLTISRVEAEDAATYYCQQWSSNPYTFGGGTKLEIK | no binding
no binding | no binding | no binding | no binding | murine monoclonal antibody 26A (antibody, V domains shown) VH: EVQLQQSGPELVKPGASMKISCKASGFSFTGYTMNWVKQSHVKNLEWIGLISPYNGGTSYNQKFKGKATLTVDKSSSTAYMELLSLTSEDSAVYYCARRAYGYAMDYWGQGTSVTVSS VL: QIVLTQSPAIMSASPGEKVTMTCSASSSVSYMYWYQQKPGSSPRLLIYDTSNLASGVPLRFSGSGSGTSYSLTISRMEAEDAATYYCQQWSSYPFTFGSGTKLEIK | 
